Out of some 140,000 compounds screened, about 4,300 (3.1%) were called active. Inconclusive results, whose numbers are uncertain, are shown with a selection of clear calls.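 Rule for the calls: active = readout at or below -70, meaning at least 70% loss of cells showing the perinucleolar compartment, a nuclear body marking cancer cells; inconclusive = readout between -30 and a set limit; inactive = the rest.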
experiment: High Content Assay for Compounds that inhibit the Assembly of the Perinucleolar Compartment; conditions: PC3M PTB-GFP, PNC prevalence imaging, 16 h; at 10 µM; stronger effect = lower value;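 note: plate controls were DMSO wells for no effect and camptothecin positive control wells for full effect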
In short: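 Compounds are pinned in duplicate onto adhered PC3M cells stably expressing GFP-tagged PTB and incubated 16 h at 37 C. Cells are then fixed, nuclei stained with Hoechst, and PNC-positive cells counted.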

SMILES | activity change (PNC), negative = inhibition
CC(NC(=O)Nc1cccc([N+](=O)[O-])c1)(C(F)(F)F)C(F)(F)F | inactive: 39.1%
O=C(c1cc(S(=O)(=O)N2CCOCC2)c(Cl)cc1Cl)N1CCCCC1 | inconclusive: -40.8%
O=C(Cn1c(-c2ccccc2)noc1=O)NCc1ccccc1 | inconclusive: -39.3%
N#Cc1c(N)sc(=S)c2c1CCN(Cc1ccccc1)C2 | inconclusive: -57.9%
c1ccc(Nc2nc(N3CCNCC3)nc(N3CCOCC3)n2)cc1 | active: -100%
O=C(c1cnn2c(C(F)F)cc(C3CC3)nc12)N1CCCC1 | inactive: 23.4%
CC(C)N(C(=O)CN(C#N)c1nc(N(C)C)nc(N(C)C)n1)c1ccccc1 | inconclusive: -37.3%
CC(=O)NC(Cc1ccccc1)C(=O)NC1CCN(C(=O)c2cnccn2)CC1 (centres undefined) | inconclusive: -49.4%
Cc1ccc(N(C(=O)c2sc(C)nc2C)C(C(=O)NCc2ccco2)c2ccccc2)cc1 (centres undefined) | inconclusive: -53.3%
COc1ccc(N/C=C\C(=O)c2ccc(Br)cc2)cc1OC | inactive: -5.93%
CC(=O)/C(=N\Nc1ccc(Cl)cc1)Sc1nnc(-c2ccccc2)n1-c1ccccc1 | inconclusive: -72.6%
O=C(/C=C/Nc1ccc(S(=O)(=O)Nc2ncccn2)cc1)c1ccc(Cl)c(Cl)c1 | inconclusive: -39.2%
COc1ccc2[nH]c3c(NCCN(C(C)C)C(C)C)ncnc3c2c1 | inactive: 21.7%
Cc1ccc(NC(=S)NNC(=O)c2cn(C)nc2C)cc1 | inconclusive: -46.9%
OCCCN1c2ccccc2Nc2nnc(-c3ccccc3)cc21 | inactive: -15.1%
O=C(c1noc2c1CCc1ccccc1-2)N1CCOCC1 | inactive: -13.6%
CCOC(=O)Nc1nnc(-c2ccc(OC)c(OC)c2)s1 | inactive: -18.7%
CCCCc1nnc(SCCSc2nnc(CCCC)n2N)n1N | inactive: 8.07%
COc1nn(-c2nc(-c3ccccc3)cc(C(F)(F)F)n2)cc1[N+](=O)[O-] | inconclusive: -38.8%
Cc1ccc(-c2nc(C#N)c(N3CCCCC3)o2)cc1 | inconclusive: -37%
CCc1ccc2[nH]c(=O)c(C(c3nnnn3CCOC)N3CCN(c4ccc(F)cc4)CC3)cc2c1 (centres undefined) | inconclusive: -34.2%
CCOC(=O)Cn1c(=O)oc2cc(S(=O)(=O)N3CCn4c3nc3ccccc34)ccc21 | inconclusive: -54.4%
Cc1c(C(=O)Nc2ccc(OC(F)(F)F)cc2)sc2nc3n(c(=O)c12)CCC3 | inactive: -4.82%

SMILES | activity change (PNC), negative = inhibition
COc1ccc(/C=N/Nc2nc(-c3ccc(Cl)cc3)cc(C(F)(F)F)n2)c(OC)c1 | inactive: 53.4%
CCCCCN=Cc1c(C)[nH]n(-c2nc3ccccc3s2)c1=O | inactive: 28.9%
Cc1cc(O)ccc1NC1=CC(=O)CC(C)(C)C1 | inactive: -15.4%
O=C(NCCc1ccc(Cl)cc1)C1CCC(CNc2c(N3CCCCC3)c(=O)c2=O)CC1 (centres undefined) | inactive: 13.6%
COc1ccc2nc(Nc3nc(CSc4nnnn4-c4ccccc4)cc(=O)[nH]3)nc(C)c2c1 | inactive: 21.3%
Cc1ccc(-c2nc(SCC(=O)Nc3cc(S(=O)(=O)N4CCCCC4)ccc3Cl)n[nH]2)cc1 | inactive: -23%
CC1CCc2cc(F)ccc2N1C(=O)CN1C(=O)c2ccccc2C1=O (centres undefined) | inconclusive: -68.5%
COC(=O)C1C(c2ccc(Cl)cc2)NC(c2ccc(Cl)cc2)C(C(=O)OC)S1(=O)=O (centres undefined) | inconclusive: -30.4%
COc1cc(NC(=O)c2cccs2)c(OC)cc1NC(=O)c1ccco1 | active: -114%
Cc1cc(C)c(S(=O)(=O)N2CCCOC2CNC(=O)C(=O)NCc2cccs2)c(C)c1 (centres undefined) | inactive: 9.52%
COc1ccc(NS(=O)(=O)c2cccc(C(=O)O)c2)cc1 | inconclusive: -69.1%
COc1cc(C(=O)N2CCC(NC(=O)C(Cc3ccc(C)cc3)NC(C)=O)CC2)cc(OC)c1OC (centres undefined) | inconclusive: -54.9%
COc1ccc(S(=O)(=O)NCc2ccccn2)cc1 | inactive: -13.6%
CCOC(=O)c1c(-n2cccc2)sc2c1CCCC2=O | inconclusive: -63.5%
CC(=O)c1ccc(N2C(=O)[C@@H]3C(CCC(N)=O)NC4(C(=O)Nc5c4ccc(Cl)c5C)[C@@H]3C2=O)cc1 (some centres undefined) | inconclusive: -68.7%
CC(C)(C)n1nnnc1C(c1cccnc1)N1CCN(C2CCCCC2)CC1 (centres undefined) | active: -83.7%
COc1ccc(CNC(=O)c2noc3c2CCCC3)cc1 | inconclusive: -32.9%
Cc1ccc(C(=O)Nc2sc(C)c(-c3ccccc3)c2C(N)=O)cc1[N+](=O)[O-] | inactive: 29.8%
CCOC(=O)/C(C#N)=C1/C=CN(Cc2ccccc2)C=N1 | inconclusive: -46.6%
CC(Oc1ccccc1)C(=O)Nc1ccc(S(=O)(=O)NCC2CCCO2)cc1 (centres undefined) | inconclusive: -39.9%
CC(=O)c1cc(F)c(N2CCN(C(=O)COc3ccccc3F)CC2)cc1C | inconclusive: -50.7%
COc1ccccc1-n1c(C)c2c(OC)cccc(=O)c2c1C | inconclusive: -32.4%
O=C(c1ccc(COc2ccccc2Cl)o1)N1CCN(c2ccccc2)CC1 | inconclusive: -34.6%

Part of the list above, with each value named:
COc1ccc(N/C=C\C(=O)c2ccc(Br)cc2)cc1OC
  activity change (PNC), negative = inhibition: inactive: -5.93%
CC(=O)c1ccc(N2C(=O)[C@@H]3C(CCC(N)=O)NC4(C(=O)Nc5c4ccc(Cl)c5C)[C@@H]3C2=O)cc1 (some centres undefined)
  activity change (PNC), negative = inhibition: inconclusive: -68.7%

(further entries)

SMILES | activity change (PNC), negative = inhibition
COC(=O)c1cc(NC(=O)c2nccnc2C(=O)O)cc(C(=O)OC)c1 | inconclusive: -73%
O=C(Nc1nc2c(s1)CCCC2=O)c1cnccn1 | inactive: 44.5%
O=C(NC1CCCCC1)[C@H](CSCc1ccccc1)N1Cc2ccccc2C1=O | inactive: 22.4%
CCn1c(/C=N/Nc2ccc(C(=O)O)cc2)nc2ccccc21 | inconclusive: -46.9%
Brc1ccc2c(c1)OCCOCCOCCOCCOCCO2 | inconclusive: -43.2%
Cc1ccc(C2c3sc(=O)[nH]c3SC3C4CC(C5C(=O)N(C(C)C(=O)O)C(=O)C45)C23)cc1 (centres undefined) | active: -89.9%
CC(C)OC(=O)NC(C)(C)COC(=O)Nc1cccc(Cl)c1 | inactive: -15.4%
COC(=O)c1cc2c(cc1NC(=O)CSCCc1ccccn1)OCO2 | inconclusive: -36.9%
Cc1ccc(Cl)cc1N1CCN(CC(=O)Nc2ccc(CN3CCCCC3)cc2)CC1 | inconclusive: -38.7%
COc1ccc(C(=O)Cc2nnc(C)s2)c(OC)c1 | inconclusive: -37.6%
CCOC(=O)C1=C(C)NC(=O)C(C#N)C1c1ccncc1 (centres undefined) | inconclusive: -36.3%
COC(=O)Cn1c(=NC(=O)CN2C(=O)CCC2=O)sc2cc(S(N)(=O)=O)ccc21 | inactive: -4.84%
N#Cc1c(NC(=O)CSc2nnc(-c3ccco3)n2-c2ccccc2)sc2c1CCC2 | inconclusive: -64%
Clc1ccc(CSc2ncnc3nc[nH]c23)cc1 | inactive: -17.2%
Cc1ccc(CN(c2ccc(C(=O)N3CCc4ccccc4C3)cc2)S(C)(=O)=O)cc1 | inconclusive: -37.1%
CCC(CC)C(=O)Nc1cccc(C(=O)N2CCCC2)c1 | inconclusive: -53.4%
Cc1cc(=O)oc2cc(OCC3CC(c4ccccc4Cl)=NO3)ccc12 (centres undefined) | active: -89.5%
Cc1ccc(NC(=O)N2CCC(O)(c3cccnc3)CC2)cc1 | inconclusive: -41.3%
CN(C)S(=O)(=O)Nc1ccc2c(c1)OCO2 | inactive: 0.21%
Cc1cc(Cl)c(S(=O)(=O)NC(C)C)cc1OCC(N)=O | inconclusive: -31.1%
COc1ccccc1N1CCN(CC(O)c2ccc3cc[nH]c3c2)CC1 (centres undefined) | inactive: 11.9%
Nc1cc(Br)c(N)c(Br)c1 | active: -93.3%
CCOCCCNC(=O)C1CCN(S(=O)(=O)CC)CC1 | inconclusive: -30.5%

Grouped by structure, the entries above with an aryl methoxy group (14)
SMILES | activity change (PNC), negative = inhibition
COc1ccc(N/C=C\C(=O)c2ccc(Br)cc2)cc1OC | inactive: -5.93%
COc1ccc2[nH]c3c(NCCN(C(C)C)C(C)C)ncnc3c2c1 | inactive: 21.7%
CCOC(=O)Nc1nnc(-c2ccc(OC)c(OC)c2)s1 | inactive: -18.7%
COc1nn(-c2nc(-c3ccccc3)cc(C(F)(F)F)n2)cc1[N+](=O)[O-] | inconclusive: -38.8%
COc1ccc(/C=N/Nc2nc(-c3ccc(Cl)cc3)cc(C(F)(F)F)n2)c(OC)c1 | inactive: 53.4%
COc1ccc2nc(Nc3nc(CSc4nnnn4-c4ccccc4)cc(=O)[nH]3)nc(C)c2c1 | inactive: 21.3%
COc1cc(NC(=O)c2cccs2)c(OC)cc1NC(=O)c1ccco1 | active: -114%
COc1ccc(NS(=O)(=O)c2cccc(C(=O)O)c2)cc1 | inconclusive: -69.1%
COc1cc(C(=O)N2CCC(NC(=O)C(Cc3ccc(C)cc3)NC(C)=O)CC2)cc(OC)c1OC (centres undefined) | inconclusive: -54.9%
COc1ccc(S(=O)(=O)NCc2ccccn2)cc1 | inactive: -13.6%
COc1ccc(CNC(=O)c2noc3c2CCCC3)cc1 | inconclusive: -32.9%
COc1ccccc1-n1c(C)c2c(OC)cccc(=O)c2c1C | inconclusive: -32.4%
COc1ccc(C(=O)Cc2nnc(C)s2)c(OC)c1 | inconclusive: -37.6%
COc1ccccc1N1CCN(CC(O)c2ccc3cc[nH]c3c2)CC1 (centres undefined) | inactive: 11.9%

(next part)

SMILES | activity change (PNC), negative = inhibition
CCn1c(-c2nonc2NC(=O)c2ccccc2)nc2ccccc21 | inconclusive: -41.4%
COc1ccc(-c2csc(-c3cc4ccccc4oc3=N)n2)cc1 | active: -93.2%
Cc1ccc(S(=O)(=O)N2CC(=NO)C2)cc1 | inconclusive: -53.2%
COc1ccc(OCC(=O)Nn2c(-c3cccc(OC)c3)nc3ccccc3c2=O)cc1 | inconclusive: -52.5%
Cc1cc(C(=O)COC(=O)c2ccc[nH]c2=O)c(C)n1-c1ccc(Br)cc1 | inconclusive: -37.6%
CC(=O)c1cc2c(O)c(O)ccc2o1 | inconclusive: -37.3%
Cc1nn(C)c(C)c1S(=O)(=O)NC1CCCc2ccccc21 (centres undefined) | inactive: -6.97%
COC(=O)c1c(NC(=O)c2ccc(S(=O)(=O)N3CCOCC3)cc2)sc2c1CCN(C)C2 | inconclusive: -42.1%
CCOC(=O)c1ccc(N2Cc3ccccc3C2=N)cc1 | inconclusive: -60%
Cn1c(Cc2ccccc2)nnc1SCC(=O)N1CCN(c2ccccc2)CC1 | inconclusive: -43.5%
COc1ccc(NC(=O)C(c2cc3c(cc2[N+](=O)[O-])OCO3)N(C)c2ccccc2)cc1 (centres undefined) | inactive: -25.8%
CCOc1ccc(N2CC(O)Cn3c2nc2c3c(=O)n(CCCc3ccccc3)c(=O)n2C)cc1 (centres undefined) | inconclusive: -35.1%
COc1ccc(OCCn2cc(/C=C(\C#N)C(=O)NCc3ccco3)c3ccccc32)cc1 | inconclusive: -31.5%
CCCS(=O)(=O)N1CCCC(C(=O)NCCCOCC)C1 (centres undefined) | inconclusive: -50.7%
CCOC(=O)c1sc(NCC2CCCO2)nc1C (centres undefined) | inactive: -8.29%
O=C1C2=C(SCCS2)C(=O)N1CCCO | inconclusive: -40.1%
C=C(C)Cn1c(CCNC(=O)CCC)nc2ccccc21 | inconclusive: -66.9%
COc1ccc(-c2nn(-c3ccccc3)cc2/C=N/NC(=S)NC(C)C)cc1OC | inconclusive: -31.1%
CCC1CCCCN1S(=O)(=O)c1ccc(S(=O)(=O)N2CCN(S(=O)(=O)CC)CC2)cc1 (centres undefined) | inconclusive: -39%
COC(=O)NCC(c1cccnc1)N1CCN(c2ccccc2)CC1 (centres undefined) | inactive: 0.849%
